Some of the results follow.
Experiments:
Assay in all cases: log2 fold change, soluble protein after heating vs DMSO (PISA); higher = thermal stabilisation; K562 cells, 10 uM, 30 min; active = over 0.2 and 3.5 SD of the protein, either way, in both replicates (recomputed)
[1] = compound: C1=CC=C(C=C1)[C@H](COC2=CC3=C(C=C2)NC(=O)N3)NC(=O)C4=CC=CN(C4=O)CC5=CC(=C(C=C5)F)F
Summary of the method: (§1)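 K562 cells at 2×10^6 cells/mL were exposed to 10 μM compound for 30 min, then aliquots were heated for 3 min across 48°C-58°C, pooled, and extracted in PBS containing 0.5% NP-40 at 4°C. The supernatant after 21,000xg for 90 min was taken as soluble protein and measured by TMTpro 16plex LC-MS/MS with channel sums equalised. Thermal stability is reported relative to control samples, with values from duplicates. Fold changes are given on a log2 scale.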

Chains of the proteins cited; added tags and fusions are not shown. Lines headed by an entry give the natural chain unless they say otherwise; changes in a name come on top.
UniProt Q9UPT5: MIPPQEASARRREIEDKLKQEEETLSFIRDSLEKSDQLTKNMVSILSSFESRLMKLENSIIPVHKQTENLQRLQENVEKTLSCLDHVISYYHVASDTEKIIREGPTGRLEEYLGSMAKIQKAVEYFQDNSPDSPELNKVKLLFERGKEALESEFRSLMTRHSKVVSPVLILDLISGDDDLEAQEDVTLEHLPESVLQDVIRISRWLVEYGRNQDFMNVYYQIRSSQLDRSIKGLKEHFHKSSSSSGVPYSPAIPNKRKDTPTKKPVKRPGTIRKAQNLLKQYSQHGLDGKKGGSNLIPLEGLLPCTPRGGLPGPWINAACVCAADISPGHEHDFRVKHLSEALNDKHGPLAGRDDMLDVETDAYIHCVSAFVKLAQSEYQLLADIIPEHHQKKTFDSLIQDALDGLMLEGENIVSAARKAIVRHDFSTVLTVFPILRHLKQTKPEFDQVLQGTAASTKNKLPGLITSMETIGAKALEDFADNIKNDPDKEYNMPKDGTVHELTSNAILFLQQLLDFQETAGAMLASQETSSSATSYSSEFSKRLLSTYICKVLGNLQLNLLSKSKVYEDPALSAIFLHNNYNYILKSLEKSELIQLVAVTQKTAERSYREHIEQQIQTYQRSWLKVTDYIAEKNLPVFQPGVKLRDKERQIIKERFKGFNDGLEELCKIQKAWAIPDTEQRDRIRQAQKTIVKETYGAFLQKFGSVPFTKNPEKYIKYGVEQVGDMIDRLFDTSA
UniProt Q9Y6I3: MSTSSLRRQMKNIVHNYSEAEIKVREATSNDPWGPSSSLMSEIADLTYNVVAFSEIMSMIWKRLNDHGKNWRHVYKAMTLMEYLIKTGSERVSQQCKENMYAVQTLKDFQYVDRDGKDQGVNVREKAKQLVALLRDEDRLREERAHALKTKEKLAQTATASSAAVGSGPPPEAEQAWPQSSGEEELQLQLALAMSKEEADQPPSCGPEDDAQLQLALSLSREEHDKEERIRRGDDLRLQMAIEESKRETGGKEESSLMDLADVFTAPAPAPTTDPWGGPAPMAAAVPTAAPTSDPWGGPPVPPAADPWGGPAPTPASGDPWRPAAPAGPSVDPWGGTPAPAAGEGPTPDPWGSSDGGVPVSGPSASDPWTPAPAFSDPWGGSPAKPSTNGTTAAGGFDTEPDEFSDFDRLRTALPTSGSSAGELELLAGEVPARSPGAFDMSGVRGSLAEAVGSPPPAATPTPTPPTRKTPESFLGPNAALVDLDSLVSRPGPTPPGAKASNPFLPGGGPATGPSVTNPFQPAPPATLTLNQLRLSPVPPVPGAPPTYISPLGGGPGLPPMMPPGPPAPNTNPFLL
UniProt Q96B26, whole entry, looked up: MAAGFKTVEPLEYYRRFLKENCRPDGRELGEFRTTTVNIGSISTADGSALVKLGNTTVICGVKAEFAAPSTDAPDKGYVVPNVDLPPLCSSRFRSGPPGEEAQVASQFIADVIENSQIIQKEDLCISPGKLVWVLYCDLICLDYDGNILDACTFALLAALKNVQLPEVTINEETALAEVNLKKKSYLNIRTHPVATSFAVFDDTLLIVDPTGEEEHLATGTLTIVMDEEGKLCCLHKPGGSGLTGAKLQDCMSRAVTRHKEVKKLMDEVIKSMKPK
UniProt O00471: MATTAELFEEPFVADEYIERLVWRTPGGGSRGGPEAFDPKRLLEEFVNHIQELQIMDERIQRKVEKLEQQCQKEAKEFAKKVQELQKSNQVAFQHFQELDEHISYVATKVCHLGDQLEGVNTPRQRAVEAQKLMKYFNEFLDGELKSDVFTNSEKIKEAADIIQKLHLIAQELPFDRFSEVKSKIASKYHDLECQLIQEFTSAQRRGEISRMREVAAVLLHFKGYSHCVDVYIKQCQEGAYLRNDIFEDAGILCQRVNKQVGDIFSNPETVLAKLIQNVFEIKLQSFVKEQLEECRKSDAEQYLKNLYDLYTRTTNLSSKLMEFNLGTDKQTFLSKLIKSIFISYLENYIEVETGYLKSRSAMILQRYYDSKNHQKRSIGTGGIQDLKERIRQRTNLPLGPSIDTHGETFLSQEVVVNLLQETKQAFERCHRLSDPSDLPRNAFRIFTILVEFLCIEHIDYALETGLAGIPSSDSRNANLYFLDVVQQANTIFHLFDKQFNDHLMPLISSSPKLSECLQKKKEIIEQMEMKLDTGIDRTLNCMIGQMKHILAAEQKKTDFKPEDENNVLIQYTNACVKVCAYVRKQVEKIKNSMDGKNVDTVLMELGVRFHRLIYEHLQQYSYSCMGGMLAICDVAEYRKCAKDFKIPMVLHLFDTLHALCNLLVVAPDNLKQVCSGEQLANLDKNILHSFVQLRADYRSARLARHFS
UniProt O43491, whole entry, looked up: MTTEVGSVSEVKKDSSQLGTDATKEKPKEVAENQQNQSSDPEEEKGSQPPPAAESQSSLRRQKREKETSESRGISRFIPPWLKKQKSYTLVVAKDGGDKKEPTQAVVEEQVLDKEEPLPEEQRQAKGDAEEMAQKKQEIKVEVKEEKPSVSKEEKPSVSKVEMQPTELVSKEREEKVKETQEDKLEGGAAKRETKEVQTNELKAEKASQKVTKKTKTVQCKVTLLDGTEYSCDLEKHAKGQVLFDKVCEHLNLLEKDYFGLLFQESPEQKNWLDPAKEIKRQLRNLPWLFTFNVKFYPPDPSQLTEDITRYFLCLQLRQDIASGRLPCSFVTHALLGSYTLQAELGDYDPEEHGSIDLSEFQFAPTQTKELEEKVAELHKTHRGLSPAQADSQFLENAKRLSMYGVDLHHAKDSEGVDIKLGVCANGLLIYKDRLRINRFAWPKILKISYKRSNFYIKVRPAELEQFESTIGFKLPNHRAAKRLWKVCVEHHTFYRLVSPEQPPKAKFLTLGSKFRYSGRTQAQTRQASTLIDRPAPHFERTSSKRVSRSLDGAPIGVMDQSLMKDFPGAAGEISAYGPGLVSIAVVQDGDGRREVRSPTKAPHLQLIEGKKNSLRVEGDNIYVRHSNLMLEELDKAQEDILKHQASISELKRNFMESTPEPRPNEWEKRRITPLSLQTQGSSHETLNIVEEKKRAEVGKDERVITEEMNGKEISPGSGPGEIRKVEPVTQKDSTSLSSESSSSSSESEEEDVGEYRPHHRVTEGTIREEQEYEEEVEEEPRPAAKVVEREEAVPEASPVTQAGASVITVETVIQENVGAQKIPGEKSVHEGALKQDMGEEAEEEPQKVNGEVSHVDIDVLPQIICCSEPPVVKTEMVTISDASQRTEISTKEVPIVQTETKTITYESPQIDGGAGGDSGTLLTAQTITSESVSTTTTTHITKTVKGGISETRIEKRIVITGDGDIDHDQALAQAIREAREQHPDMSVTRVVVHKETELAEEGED
UniProt Q9H501: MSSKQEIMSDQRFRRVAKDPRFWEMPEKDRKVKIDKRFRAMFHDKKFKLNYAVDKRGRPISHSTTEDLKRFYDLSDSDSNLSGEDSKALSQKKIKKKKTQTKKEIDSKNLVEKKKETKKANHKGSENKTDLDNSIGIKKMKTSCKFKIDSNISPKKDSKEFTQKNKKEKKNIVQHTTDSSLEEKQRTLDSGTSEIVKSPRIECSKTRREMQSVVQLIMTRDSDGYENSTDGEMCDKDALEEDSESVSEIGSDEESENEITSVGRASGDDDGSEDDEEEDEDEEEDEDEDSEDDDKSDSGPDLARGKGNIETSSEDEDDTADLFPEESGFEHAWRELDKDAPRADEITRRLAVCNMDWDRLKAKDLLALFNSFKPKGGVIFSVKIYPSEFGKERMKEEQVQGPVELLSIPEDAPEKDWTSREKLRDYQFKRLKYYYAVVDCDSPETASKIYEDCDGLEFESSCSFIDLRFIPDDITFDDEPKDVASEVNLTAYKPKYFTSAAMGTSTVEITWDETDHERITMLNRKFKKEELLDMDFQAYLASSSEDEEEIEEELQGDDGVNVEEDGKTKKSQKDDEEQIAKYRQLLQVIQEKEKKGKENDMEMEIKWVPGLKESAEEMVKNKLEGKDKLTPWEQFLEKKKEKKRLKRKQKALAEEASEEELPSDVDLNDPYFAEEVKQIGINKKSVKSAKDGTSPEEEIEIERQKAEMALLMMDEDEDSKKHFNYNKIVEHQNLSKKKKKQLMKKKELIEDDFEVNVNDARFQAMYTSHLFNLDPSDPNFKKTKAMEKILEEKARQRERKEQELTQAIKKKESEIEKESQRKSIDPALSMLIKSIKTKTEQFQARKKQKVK
UniProt Q9BS26: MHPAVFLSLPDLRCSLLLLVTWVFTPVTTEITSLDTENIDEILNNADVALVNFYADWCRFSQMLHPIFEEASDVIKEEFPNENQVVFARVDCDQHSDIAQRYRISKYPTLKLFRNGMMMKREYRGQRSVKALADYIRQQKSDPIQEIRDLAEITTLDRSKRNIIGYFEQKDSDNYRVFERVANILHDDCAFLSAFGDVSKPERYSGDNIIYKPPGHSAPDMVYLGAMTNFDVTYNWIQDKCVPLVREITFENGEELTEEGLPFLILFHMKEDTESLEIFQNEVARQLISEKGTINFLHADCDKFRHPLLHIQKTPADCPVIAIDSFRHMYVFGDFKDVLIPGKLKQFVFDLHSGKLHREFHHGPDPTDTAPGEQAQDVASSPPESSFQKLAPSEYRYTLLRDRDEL
UniProt Q7Z2K6: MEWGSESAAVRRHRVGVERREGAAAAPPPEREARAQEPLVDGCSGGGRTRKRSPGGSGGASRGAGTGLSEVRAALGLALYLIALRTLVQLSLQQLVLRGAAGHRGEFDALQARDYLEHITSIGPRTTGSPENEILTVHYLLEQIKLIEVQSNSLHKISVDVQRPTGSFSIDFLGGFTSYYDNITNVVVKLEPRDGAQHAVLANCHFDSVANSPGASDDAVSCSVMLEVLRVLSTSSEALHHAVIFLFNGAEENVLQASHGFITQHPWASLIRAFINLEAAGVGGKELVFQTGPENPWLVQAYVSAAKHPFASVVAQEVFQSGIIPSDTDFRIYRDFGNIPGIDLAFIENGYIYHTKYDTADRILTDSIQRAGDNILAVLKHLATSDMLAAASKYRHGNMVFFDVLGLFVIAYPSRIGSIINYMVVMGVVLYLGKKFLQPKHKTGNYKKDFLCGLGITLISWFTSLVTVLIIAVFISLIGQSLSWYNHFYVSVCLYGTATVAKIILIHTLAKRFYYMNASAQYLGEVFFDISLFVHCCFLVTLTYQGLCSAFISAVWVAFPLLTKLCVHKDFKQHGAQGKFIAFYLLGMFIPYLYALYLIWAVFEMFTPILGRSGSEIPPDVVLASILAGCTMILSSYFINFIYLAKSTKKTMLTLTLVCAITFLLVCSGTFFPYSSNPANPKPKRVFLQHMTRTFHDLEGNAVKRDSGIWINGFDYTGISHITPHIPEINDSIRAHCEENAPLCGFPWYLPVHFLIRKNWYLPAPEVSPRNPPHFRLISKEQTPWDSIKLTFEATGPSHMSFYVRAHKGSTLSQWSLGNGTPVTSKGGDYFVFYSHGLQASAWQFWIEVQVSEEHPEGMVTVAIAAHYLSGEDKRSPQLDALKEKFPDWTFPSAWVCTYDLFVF
UniProt O43414: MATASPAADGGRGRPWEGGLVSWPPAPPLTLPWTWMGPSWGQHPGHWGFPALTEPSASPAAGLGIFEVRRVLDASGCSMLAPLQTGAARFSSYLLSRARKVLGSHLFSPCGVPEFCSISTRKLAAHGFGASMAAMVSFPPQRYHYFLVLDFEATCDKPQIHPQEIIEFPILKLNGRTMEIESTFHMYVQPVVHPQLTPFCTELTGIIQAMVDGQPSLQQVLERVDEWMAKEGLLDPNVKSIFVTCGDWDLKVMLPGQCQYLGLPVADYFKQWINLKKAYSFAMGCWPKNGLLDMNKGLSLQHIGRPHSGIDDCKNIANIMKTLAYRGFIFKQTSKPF
UniProt Q93063: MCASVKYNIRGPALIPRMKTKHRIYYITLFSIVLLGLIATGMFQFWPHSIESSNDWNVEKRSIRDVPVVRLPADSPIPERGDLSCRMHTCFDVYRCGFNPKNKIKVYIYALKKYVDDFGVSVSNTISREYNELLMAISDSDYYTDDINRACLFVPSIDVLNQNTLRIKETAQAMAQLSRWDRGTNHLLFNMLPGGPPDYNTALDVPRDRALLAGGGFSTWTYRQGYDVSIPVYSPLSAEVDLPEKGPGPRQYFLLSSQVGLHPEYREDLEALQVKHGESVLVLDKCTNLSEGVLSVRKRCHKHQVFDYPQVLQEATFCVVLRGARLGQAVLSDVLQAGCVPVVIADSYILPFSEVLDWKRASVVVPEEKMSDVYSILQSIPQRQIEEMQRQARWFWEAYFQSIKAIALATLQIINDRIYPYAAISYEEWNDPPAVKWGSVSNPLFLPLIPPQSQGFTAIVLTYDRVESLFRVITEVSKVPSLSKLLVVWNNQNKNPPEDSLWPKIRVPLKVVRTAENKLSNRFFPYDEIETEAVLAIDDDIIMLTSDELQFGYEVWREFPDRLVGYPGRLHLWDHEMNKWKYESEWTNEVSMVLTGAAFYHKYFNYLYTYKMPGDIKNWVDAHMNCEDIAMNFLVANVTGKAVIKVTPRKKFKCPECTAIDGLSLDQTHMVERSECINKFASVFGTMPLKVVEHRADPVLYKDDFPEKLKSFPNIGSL

[2] = compound: CC1=C(SC2=C1C(=N[C@H](C3=NN=C(N32)C)CC(=O)N)C4=CC=C(C=C4)Cl)C
Summary of the method: as §1

[3] = compound: CC1=C2C(=CC=C1)N=C(N(C2=O)C3=CC=CC=C3C)CN4C=NC5=C(N=CN=C54)N
Summary of the method: as §1

[4] = compound: Cc1sc2c(c1C)C(c1ccc(Cl)cc1)=N[C@@H](CC(=O)OC(C)(C)C)c1nnc(C)n1-2
Summary of the method: as §1

[5] = compound: c1ccc([C@@H]2C[C@H]2NC2CCNCC2)cc1
Summary of the method: as §1

Target | log2 fold change [1] | log2 fold change [2] | log2 fold change [3] | log2 fold change [4] | log2 fold change [5]
EXOC7 (UniProt Q9UPT5) | inactive: -0.063 | inactive: -0.001 | inactive: 0.035 | inactive: 0.07 | inactive: -0.014
EPHA6 (UniProt Q9UF33) | inactive: 0.084 | inactive: -0.1 | inactive: 0.72 | inactive: 0.048 | inactive: 0.281
FADS3 (UniProt Q9Y5Q0) | inactive: 0.027 | inactive: 0.023 | inactive: 0.026 | inactive: 0.025 | inactive: -0.007
ERCC8 (UniProt Q13216) | inactive: 0.016 | inactive: -0.058 | inactive: 0.138 | inactive: -0.272 | inactive: 0.056
ERCC2 (UniProt P18074) | inactive: 0 | inactive: -0.025 | inactive: -0.044 | inactive: -0.104 | inactive: 0.05
EXTL3 (UniProt O43909) | inactive: 0.103 | inactive: -0.043 | inactive: 0.039 | inactive: -0.012 | inactive: -0.076
FAM136A (UniProt Q96C01) | inactive: -0.029 | inactive: 0.014 | inactive: 0.041 | inactive: -0.069 | inactive: -0.035
F9 (UniProt P00740) | inactive: 0.079 | inactive: -0.03 | inactive: 0.186 | inactive: -0.007 | inactive: 0.19
ERI3 (UniProt H0Y4B0) | inactive: 0.029 | – | – | – | –
ESYT2 isoform 2 (UniProt A0FGR8) | inactive: 0.002 | inactive: 0.054 | inactive: 0.042 | inactive: 0.001 | inactive: -0.013
ESYT1 isoform 2 (UniProt Q9BSJ8) | inactive: -0.063 | inactive: -0.046 | inactive: 0.018 | inactive: 0.008 | inactive: -0.046
EPN1 isoform 3 (UniProt Q9Y6I3) | inactive: 0.258 | – | – | – | –
EXOC6 (UniProt Q8TAG9) | inactive: -0.088 | inactive: -0.006 | inactive: 0.072 | inactive: 0.031 | inactive: -0.069
EVC2 (UniProt Q86UK5) | inactive: -0.064 | inactive: -0.044 | inactive: -0.141 | inactive: 0.021 | inactive: 0.081
F2 (UniProt P00734) | inactive: -0.046 | inactive: -0.006 | inactive: 0.059 | inactive: -0.015 | inactive: 0.021
EPN2 (UniProt O95208) | inactive: 0.012 | inactive: 0.03 | inactive: 0.007 | inactive: 0.024 | inactive: 0.102
FABP5 (UniProt Q01469) | inactive: -0.044 | inactive: -0.005 | inactive: -0.05 | inactive: -0.007 | inactive: -0.018
FAM162A (UniProt Q96A26) | inactive: 0.043 | inactive: 0.051 | inactive: 0.129 | inactive: -0.022 | inactive: -0.026
FAM160A2 isoform 2 (UniProt Q8N612) | inactive: -0.027 | inactive: -0.054 | inactive: 0.343 | inactive: 0.148 | inactive: -0.344

Target | log2 fold change [1] | log2 fold change [2] | log2 fold change [3] | log2 fold change [4] | log2 fold change [5]
EPN1 (UniProt Q9Y6I3) | inactive: -0.039 | inactive: 0.067 | inactive: -0.014 | inactive: -0.015 | inactive: -0.029
EXOSC8 (UniProt Q96B26) | inactive: 0.017 | inactive: -0.003 | inactive: -0.03 | inactive: 0.024 | inactive: 0.017
FAF2 (UniProt Q96CS3) | inactive: 0.002 | inactive: 0.025 | inactive: 0.067 | inactive: -0.012 | inactive: -0.017
EXOSC9 isoform 2 (UniProt Q06265) | inactive: 0.025 | inactive: -0.017 | inactive: -0.016 | inactive: 0.018 | inactive: 0.062
ERC1 (UniProt Q8IUD2) | inactive: 0.191 | inactive: 0.199 | inactive: 0.166 | inactive: -0.01 | inactive: -0.052
ERVK3-1, A0A0U1RQV1 | inactive: 0.002 | inactive: 0.028 | inactive: -0.059 | inactive: -0.053 | inactive: 0.038
EXOC5 (UniProt O00471) | inactive: -0.069 | inactive: -0.006 | inactive: 0.07 | inactive: 0.066 | inactive: -0.018
ERGIC1 (UniProt Q969X5) | inactive: 0.039 | inactive: 0.047 | inactive: 0.006 | inactive: -0.02 | inactive: 0.023
EPHX2 (UniProt P34913) | inactive: -0.015 | inactive: 0.091 | inactive: 0.052 | inactive: 0.143 | inactive: -0.002
ERMAP (UniProt Q96PL5) | inactive: -0.047 | inactive: -0.008 | inactive: 0.065 | inactive: -0.045 | inactive: 0.027
ERCC5 (UniProt P28715) | inactive: 0.18 | inactive: 0.088 | inactive: 0.085 | inactive: 0.031 | inactive: -0.077
EPB41L2 isoform 4 (UniProt O43491) | inactive: 0.005 | – | – | – | –
ERLIN2 (UniProt O94905) | inactive: -0.025 | inactive: -0.048 | inactive: -0.038 | inactive: 0.006 | inactive: -0.044
EPHX2 (UniProt E5RI53) | inactive: -0.024 | – | – | – | –
FAM192A (UniProt Q9GZU8) | inactive: 0.004 | inactive: 0 | inactive: 0.007 | inactive: 0.01 | inactive: 0.017
ESF1 (UniProt Q9H501) | inactive: -0.144 | – | – | – | –
ERP44 (UniProt Q9BS26) | inactive: 0.065 | inactive: 0.01 | inactive: 0.001 | inactive: 0.004 | inactive: -0.015
ERMP1 (UniProt Q7Z2K6) | inactive: 0.02 | inactive: 0.027 | inactive: 0.079 | inactive: -0.045 | inactive: 0.02
ERH (UniProt P84090) | inactive: 0.173 | inactive: 0.051 | inactive: -0.057 | inactive: -0.064 | inactive: -0.048

Target | log2 fold change [1] | log2 fold change [2] | log2 fold change [3] | log2 fold change [4] | log2 fold change [5]
EXOSC3 (UniProt Q9NQT5) | inactive: -0.02 | inactive: -0.041 | inactive: 0.01 | inactive: -0.002 | inactive: -0.022
ERI3 (UniProt O43414) | inactive: -0.099 | inactive: 0.025 | inactive: 0.06 | inactive: -0.023 | inactive: 0.008
EPB41L3 (UniProt Q9Y2J2) | inactive: -0.021 | inactive: 0.044 | inactive: 0.043 | inactive: 0 | inactive: -0.003
EPM2AIP1 (UniProt Q7L775) | inactive: 0.005 | inactive: 0.034 | inactive: 0.074 | inactive: -0.005 | inactive: 0.004
ETFDH (UniProt Q16134) | inactive: -0.034 | inactive: 0.044 | inactive: 0.074 | inactive: -0.056 | inactive: -0.028
ETHE1 (UniProt O95571) | inactive: -0.024 | inactive: -0.02 | inactive: 0.037 | inactive: -0.032 | inactive: 0.03
FAM133B (UniProt Q5BKY9) | inactive: 0.02 | inactive: 0.027 | inactive: 0.008 | inactive: 0.03 | inactive: 0.061
ETF1 (UniProt P62495) | inactive: -0.037 | inactive: 0.05 | inactive: 0.029 | inactive: -0.005 | inactive: -0.019
EXOC3 (UniProt O60645) | inactive: -0.019 | inactive: 0.101 | inactive: 0.076 | inactive: 0.028 | inactive: -0.068
EXTL2 (UniProt Q9UBQ6) | inactive: 0.028 | inactive: 0.106 | inactive: 0.003 | active: 0.316 | inactive: -0.211
EPB41L2 (UniProt O43491) | inactive: 0.011 | inactive: 0.059 | inactive: 0.052 | inactive: -0.007 | inactive: 0
FAH isoform 2 (UniProt P16930) | inactive: -0.198 | inactive: 0.06 | inactive: 0.016 | inactive: -0.027 | inactive: 0.005
ETFRF1 (UniProt Q6IPR1) | inactive: 0.059 | inactive: 0.097 | inactive: -0.006 | inactive: 0.045 | inactive: -0.014
EXOSC10 (UniProt Q01780) | inactive: 0.162 | inactive: 0.184 | inactive: 0.284 | inactive: 0.03 | inactive: -0.041
EXT2 isoform 3 (UniProt Q93063) | inactive: 0.052 | inactive: -0.012 | inactive: 0.005 | inactive: -0.016 | inactive: 0.033
ERAP1 isoform 2 (UniProt Q9NZ08) | inactive: 0.052 | inactive: -0.026 | inactive: 0.011 | inactive: -0.037 | inactive: -0.012
EXOC2 (UniProt Q96KP1) | inactive: -0.054 | inactive: 0.025 | inactive: 0.03 | inactive: 0.033 | inactive: 0.011
ERG28 (UniProt Q9UKR5) | inactive: -0.071 | inactive: -0.262 | inactive: 0.002 | inactive: -0.008 | inactive: 0.2

An excerpt taken from the entries so far, as a working copy:
Target | log2 fold change [1] | log2 fold change [2] | log2 fold change [3] | log2 fold change [4] | log2 fold change [5]
ERI3 (UniProt O43414) | inactive: -0.099 | inactive: 0.025 | inactive: 0.06 | inactive: -0.023 | inactive: 0.008
EPB41L3 (UniProt Q9Y2J2) | inactive: -0.021 | inactive: 0.044 | inactive: 0.043 | inactive: 0 | inactive: -0.003
EPM2AIP1 (UniProt Q7L775) | inactive: 0.005 | inactive: 0.034 | inactive: 0.074 | inactive: -0.005 | inactive: 0.004

— the supplement of paper PMC10849652
